Results taken from publication doi:10.1101/2025.01.22.634223.
These are yes or no findings as the source states them, for the method shown. In cells and extracts the contact can be indirect. Some results given as binding are weak or reduced against the parent protein; the word gives no strength. Tags and fused reporters may be left off the sequences shown.

Protein sequences, listed by entry. Tags and fused reporters are not part of them.
UniProt Q94361: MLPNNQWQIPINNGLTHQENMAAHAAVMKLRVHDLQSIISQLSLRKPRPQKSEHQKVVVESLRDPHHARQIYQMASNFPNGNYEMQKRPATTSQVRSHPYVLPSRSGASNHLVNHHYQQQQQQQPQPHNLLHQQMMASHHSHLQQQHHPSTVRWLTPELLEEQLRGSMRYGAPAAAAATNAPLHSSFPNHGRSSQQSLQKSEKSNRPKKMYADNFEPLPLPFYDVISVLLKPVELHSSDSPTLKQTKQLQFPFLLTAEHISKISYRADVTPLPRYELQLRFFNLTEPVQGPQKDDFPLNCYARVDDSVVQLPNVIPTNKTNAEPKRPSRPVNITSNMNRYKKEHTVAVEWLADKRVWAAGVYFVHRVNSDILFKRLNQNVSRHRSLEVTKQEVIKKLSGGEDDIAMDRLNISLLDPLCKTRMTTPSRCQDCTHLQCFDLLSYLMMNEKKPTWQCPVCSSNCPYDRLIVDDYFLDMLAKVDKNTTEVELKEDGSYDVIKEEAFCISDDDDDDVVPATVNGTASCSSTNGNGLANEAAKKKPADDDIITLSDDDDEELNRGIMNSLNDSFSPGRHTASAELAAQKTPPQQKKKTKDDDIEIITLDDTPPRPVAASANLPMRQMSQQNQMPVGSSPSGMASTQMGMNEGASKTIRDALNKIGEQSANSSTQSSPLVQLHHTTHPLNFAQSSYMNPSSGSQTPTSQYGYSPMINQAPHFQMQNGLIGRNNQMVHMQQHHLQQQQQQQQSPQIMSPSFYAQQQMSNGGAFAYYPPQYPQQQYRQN
UniProt O75925: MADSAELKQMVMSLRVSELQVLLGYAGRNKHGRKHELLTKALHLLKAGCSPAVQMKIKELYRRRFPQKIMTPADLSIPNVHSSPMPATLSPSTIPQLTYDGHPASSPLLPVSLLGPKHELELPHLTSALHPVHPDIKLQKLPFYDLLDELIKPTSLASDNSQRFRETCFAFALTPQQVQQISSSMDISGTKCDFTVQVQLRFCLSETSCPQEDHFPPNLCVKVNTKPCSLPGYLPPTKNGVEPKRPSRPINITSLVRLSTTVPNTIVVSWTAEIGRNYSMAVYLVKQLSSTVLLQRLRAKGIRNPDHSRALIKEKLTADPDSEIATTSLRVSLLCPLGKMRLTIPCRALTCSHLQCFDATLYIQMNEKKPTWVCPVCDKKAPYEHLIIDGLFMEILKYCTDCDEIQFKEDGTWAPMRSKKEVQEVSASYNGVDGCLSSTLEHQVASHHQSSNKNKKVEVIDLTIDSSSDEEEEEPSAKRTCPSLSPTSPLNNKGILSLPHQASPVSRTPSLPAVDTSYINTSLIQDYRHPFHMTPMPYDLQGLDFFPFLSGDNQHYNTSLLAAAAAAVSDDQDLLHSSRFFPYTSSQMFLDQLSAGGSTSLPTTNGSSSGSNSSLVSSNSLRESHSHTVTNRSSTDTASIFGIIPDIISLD
UniProt P62820: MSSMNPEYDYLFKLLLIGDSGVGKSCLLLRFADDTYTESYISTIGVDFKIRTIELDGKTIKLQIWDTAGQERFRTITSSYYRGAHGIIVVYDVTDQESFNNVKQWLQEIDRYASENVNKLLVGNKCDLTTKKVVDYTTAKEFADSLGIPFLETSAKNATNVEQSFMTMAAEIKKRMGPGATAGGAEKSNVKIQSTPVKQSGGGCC

What follows are substances tested against T1, HA::hGDI1 expressed in HEK293T cells (human) (UniProt P31150) (assay: co-IP).
T1 sequence: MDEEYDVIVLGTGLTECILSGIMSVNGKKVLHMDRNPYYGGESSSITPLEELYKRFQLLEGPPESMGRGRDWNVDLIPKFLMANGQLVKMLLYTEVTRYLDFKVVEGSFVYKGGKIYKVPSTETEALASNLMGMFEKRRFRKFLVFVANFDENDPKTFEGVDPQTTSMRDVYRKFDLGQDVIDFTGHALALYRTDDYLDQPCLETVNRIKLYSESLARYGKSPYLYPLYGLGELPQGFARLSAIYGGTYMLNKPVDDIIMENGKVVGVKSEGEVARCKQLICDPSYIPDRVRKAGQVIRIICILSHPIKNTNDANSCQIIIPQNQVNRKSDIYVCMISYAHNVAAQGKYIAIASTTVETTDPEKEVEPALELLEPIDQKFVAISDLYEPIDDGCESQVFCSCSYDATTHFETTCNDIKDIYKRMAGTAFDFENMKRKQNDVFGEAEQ
In the case of “GEI-17 expressed in HEK293T cells (from UniProt Q94361 1-780) (enzyme)”, the binding is reported as “binds”. For “MYC::PIAS1 expressed in HEK293T cells (from UniProt O75925 1-651) (enzyme)”, the binding was “binds”. In the case of “MYC::RAB1A expressed in HEK293T cells (from UniProt P62820 1-205)”, the binding is reported as “binds”.
